# Data as given in PubChem BioAssay AID1224830 (NIAID, 2016)
# Aim: 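Host factors that control LPS-induced TNF expression in human macrophages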 (primary screen)
# System: human THP-1 monocytic leukaemia cells, TNF dual-luciferase reporter clone, PMA-differentiated to macrophage-like cells
# Reagents: siRNA pool against human genes, 50 nM
# Duration: LPS for 4 h, given about 3 days after siRNA transfection
# Conditions: bacterial LPS (TLR4 ligand), 10 ng/ml
# Read-out: 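TNF firefly reporter luminescence divided by renilla, normalised to the plate median, then turned into a robust z-score for each replicate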
# Direction: TNF reporter robust z-score: higher = stronger TNF reporter response to LPS
# Active means: 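Each well counts as active if its z-score is over 2.8 or under -1.5; controls are left without a call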
# The deposit covers about 18,000 reagents; this is an unselected part. About 2,900 of them (16%) were called active. 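Calls are made per well; low scores hint the gene aids the LPS response, high scores that it dampens it.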 Repeated entries: four replicate wells of each siRNA pool. No sequences are given here.
gene symbol,TNF reporter robust z-score,Outcome
IL10 (interleukin 10),-0.65,inactive
IL10 (interleukin 10),0.61,inactive
IL10 (interleukin 10),-0.97,inactive
IL10 (interleukin 10),-0.08,inactive
DSTYK (dual serine/threonine and tyrosine protein kinase),-1.74,active
DSTYK (dual serine/threonine and tyrosine protein kinase),-1.8,active
DSTYK (dual serine/threonine and tyrosine protein kinase),-1.84,active
DSTYK (dual serine/threonine and tyrosine protein kinase),-2.11,active
ISCU (iron-sulfur cluster assembly enzyme),0.16,inactive
ISCU (iron-sulfur cluster assembly enzyme),0.56,inactive
ISCU (iron-sulfur cluster assembly enzyme),-0.82,inactive
ISCU (iron-sulfur cluster assembly enzyme),-0.42,inactive
TREX1 (three prime repair exonuclease 1),-0.73,inactive
TREX1 (three prime repair exonuclease 1),-0.79,inactive
TREX1 (three prime repair exonuclease 1),-0.19,inactive
TREX1 (three prime repair exonuclease 1),0.28,inactive
RPL32 (ribosomal protein L32),-1.7,active
RPL32 (ribosomal protein L32),-1.38,inactive
RPL32 (ribosomal protein L32),-0.98,inactive
RPL32 (ribosomal protein L32),0.36,inactive
FBRS (fibrosin),1.43,inactive
FBRS (fibrosin),1.32,inactive
FBRS (fibrosin),0.95,inactive
FBRS (fibrosin),0.15,inactive
PDIA5 (protein disulfide isomerase family A member 5),-1.29,inactive
PDIA5 (protein disulfide isomerase family A member 5),-0.85,inactive
PDIA5 (protein disulfide isomerase family A member 5),-0.8,inactive
PDIA5 (protein disulfide isomerase family A member 5),-0.11,inactive

The list goes on (9 carried over from the part before).
gene symbol,TNF reporter robust z-score,Outcome
RPL32 (ribosomal protein L32),0.36,inactive
FBRS (fibrosin),1.43,inactive
FBRS (fibrosin),1.32,inactive
FBRS (fibrosin),0.95,inactive
FBRS (fibrosin),0.15,inactive
PDIA5 (protein disulfide isomerase family A member 5),-1.29,inactive
PDIA5 (protein disulfide isomerase family A member 5),-0.85,inactive
PDIA5 (protein disulfide isomerase family A member 5),-0.8,inactive
PDIA5 (protein disulfide isomerase family A member 5),-0.11,inactive
CCDC38 (coiled-coil domain containing 38),-0.29,inactive
CCDC38 (coiled-coil domain containing 38),0.57,inactive
CCDC38 (coiled-coil domain containing 38),-0.83,inactive
"MUC2 (mucin 2, oligomeric mucus/gel-forming)",-0.69,inactive
"MUC2 (mucin 2, oligomeric mucus/gel-forming)",-0.25,inactive
"MUC2 (mucin 2, oligomeric mucus/gel-forming)",-1.08,inactive
"MUC2 (mucin 2, oligomeric mucus/gel-forming)",-0.14,inactive
DNAJC19 (DnaJ heat shock protein family (Hsp40) member C19),0,inactive
DNAJC19 (DnaJ heat shock protein family (Hsp40) member C19),-0.64,inactive
DNAJC19 (DnaJ heat shock protein family (Hsp40) member C19),0.2,inactive
DNAJC19 (DnaJ heat shock protein family (Hsp40) member C19),-0.09,inactive
AATF (apoptosis antagonizing transcription factor),1.06,inactive
AATF (apoptosis antagonizing transcription factor),1.07,inactive
AATF (apoptosis antagonizing transcription factor),0.14,inactive
AATF (apoptosis antagonizing transcription factor),1.77,inactive
STXBP4 (syntaxin binding protein 4),0.81,inactive
STXBP4 (syntaxin binding protein 4),1.66,inactive
STXBP4 (syntaxin binding protein 4),0.51,inactive
STXBP4 (syntaxin binding protein 4),3.79,active
ESPNL (espin like),1.01,inactive
ESPNL (espin like),2.22,inactive
ESPNL (espin like),1.59,inactive
ESPNL (espin like),1.84,inactive
ESRP1 (epithelial splicing regulatory protein 1),-0.51,inactive
ESRP1 (epithelial splicing regulatory protein 1),-0.6,inactive
ESRP1 (epithelial splicing regulatory protein 1),-0.7,inactive
ESRP1 (epithelial splicing regulatory protein 1),-0.78,inactive
DBX2 (developing brain homeobox 2),-1.17,inactive
DBX2 (developing brain homeobox 2),-0.81,inactive
DBX2 (developing brain homeobox 2),-0.71,inactive
DBX2 (developing brain homeobox 2),-0.61,inactive
PRKCQ (protein kinase C theta),-0.75,inactive
PRKCQ (protein kinase C theta),0.16,inactive
PRKCQ (protein kinase C theta),-0.33,inactive
PRKCQ (protein kinase C theta),1.06,inactive
PPP2R5A (protein phosphatase 2 regulatory subunit B'alpha),-1.22,inactive
PPP2R5A (protein phosphatase 2 regulatory subunit B'alpha),-1.06,inactive
PPP2R5A (protein phosphatase 2 regulatory subunit B'alpha),-0.73,inactive
PPP2R5A (protein phosphatase 2 regulatory subunit B'alpha),0.12,inactive
RRP36 (ribosomal RNA processing 36),-0.08,inactive
RRP36 (ribosomal RNA processing 36),2.13,inactive
RRP36 (ribosomal RNA processing 36),0.64,inactive
RRP36 (ribosomal RNA processing 36),1.37,inactive
SFT2D3 (SFT2 domain containing 3),0.54,inactive
SFT2D3 (SFT2 domain containing 3),0.79,inactive
SFT2D3 (SFT2 domain containing 3),-0.06,inactive
SFT2D3 (SFT2 domain containing 3),0.38,inactive
